{"sequences": {"note": "By UniProt entry, the sequences of proteins in these tests, tags left out.", "UniProt Q9JHL1": "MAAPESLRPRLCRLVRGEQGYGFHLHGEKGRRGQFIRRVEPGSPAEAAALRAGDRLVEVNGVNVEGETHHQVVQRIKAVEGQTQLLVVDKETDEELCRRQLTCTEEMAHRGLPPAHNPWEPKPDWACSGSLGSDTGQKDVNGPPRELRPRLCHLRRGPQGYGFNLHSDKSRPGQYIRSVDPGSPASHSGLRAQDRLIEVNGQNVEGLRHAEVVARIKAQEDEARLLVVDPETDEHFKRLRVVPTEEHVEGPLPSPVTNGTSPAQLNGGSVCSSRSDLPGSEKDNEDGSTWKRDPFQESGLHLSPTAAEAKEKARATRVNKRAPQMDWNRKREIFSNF", "UniProt P26040": "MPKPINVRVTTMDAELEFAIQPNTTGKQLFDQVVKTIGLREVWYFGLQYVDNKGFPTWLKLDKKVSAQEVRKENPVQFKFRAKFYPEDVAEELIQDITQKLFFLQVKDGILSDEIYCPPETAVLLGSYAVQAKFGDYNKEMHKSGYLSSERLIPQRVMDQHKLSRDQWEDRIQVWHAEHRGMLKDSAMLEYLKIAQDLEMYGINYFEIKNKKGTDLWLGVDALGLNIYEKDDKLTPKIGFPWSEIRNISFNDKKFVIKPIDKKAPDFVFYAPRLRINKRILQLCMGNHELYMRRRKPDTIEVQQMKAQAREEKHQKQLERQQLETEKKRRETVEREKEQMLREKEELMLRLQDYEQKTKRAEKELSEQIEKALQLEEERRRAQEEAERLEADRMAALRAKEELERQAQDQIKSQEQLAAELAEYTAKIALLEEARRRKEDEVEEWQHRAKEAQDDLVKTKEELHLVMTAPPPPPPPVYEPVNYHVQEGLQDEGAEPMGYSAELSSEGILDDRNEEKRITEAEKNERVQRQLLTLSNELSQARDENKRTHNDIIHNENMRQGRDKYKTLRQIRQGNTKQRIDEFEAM"}, "source": "paper PMC4373682", "molecules": {"B1": {"name": "Myc-tagged Schip1 (transfected HEK293 cells) (protein, UniProt P0DPB4 1-484)", "chain": "MERSEQRVRAAWDCDPGKQADRDYREDGMDLGSDAGSSSSSRASSQSNSTKVTPCSECKSSSSPGGSLDLVSALEDYEEPFPVYQKKVIDEWAPEEDGEEEEEEDDRGYRDDGCPAREPGDVSARIGSSGSGSRSAATTMPSPMPNGNLHPHDPQDLRHNGNVVVAGRPNASRVPRRPIQKTQPPGSRRGGRNRASGGLCLQPPDGGTRVPEEPPAPPMDWEALEKHLAGLQFREQEVRNQGQARTNSTSAQKNERESIRQKLALGSFFDDGPGIYTSCSKSGKPSLSARLQSGMNLQICFVNDSGSDKDSDADDSKTETSLDTPLSPMSKQSSSYSDRDTTEEESESLDDMDFLTRQKKLQAEAKMALAMAKPMAKMQVEVEKQNRKKSPVADLLPHMPHISECLMKRSLKPTDLRDMTIGQLQVIVNDLHSQIESLNEELVQLLLIRDELHTEQDAMLVDIEDLTRHAESQQKHMAEKMPAK"}}, "key": {"[1]": {"molecular_target": "T1, Schip1 most C-terminal coiled-coil domain (amino-acids 398-459), Gal4 DNA-binding domain fusion bait (mouse) (UniProt P0DPB4)", "T1 sequence": "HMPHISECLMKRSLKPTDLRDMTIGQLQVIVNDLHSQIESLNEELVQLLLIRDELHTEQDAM", "experiment": "two-hybrid; yeast two-hybrid screen of a mouse kidney glomerulus cDNA library with a Gal4 DNA-binding domain bait; selective drop-out medium; 32 clones sequenced"}, "[2]": {"molecular_target": "T2, Myc-tagged Schip1 (transfected HEK293 cells) (mouse) (UniProt P0DPB4)", "T2 sequence": "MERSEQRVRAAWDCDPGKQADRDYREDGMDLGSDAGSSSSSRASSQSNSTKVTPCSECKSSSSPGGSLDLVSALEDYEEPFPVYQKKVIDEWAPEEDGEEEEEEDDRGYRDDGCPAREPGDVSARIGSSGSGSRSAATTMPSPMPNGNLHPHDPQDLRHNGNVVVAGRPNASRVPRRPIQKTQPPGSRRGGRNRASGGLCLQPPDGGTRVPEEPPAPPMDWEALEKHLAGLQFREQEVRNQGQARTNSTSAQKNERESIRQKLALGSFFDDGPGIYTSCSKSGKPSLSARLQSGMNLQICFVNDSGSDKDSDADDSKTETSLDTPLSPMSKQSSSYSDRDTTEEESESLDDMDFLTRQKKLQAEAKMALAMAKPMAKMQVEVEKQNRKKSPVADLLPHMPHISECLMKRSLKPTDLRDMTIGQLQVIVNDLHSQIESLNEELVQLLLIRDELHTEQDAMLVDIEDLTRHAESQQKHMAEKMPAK", "experiment": "co-IP; lysates of transiently cotransfected HEK293 cells; 0.5% Triton X-100, 20 mM Tris-HCl pH 7.4, 150 mM NaCl; primary antibody overnight, protein A+G agarose beads 1 h at 4°C"}, "[3]": {"molecular_target": "Flag-tagged Nherf2 (transfected HEK293 cells) (mouse) (UniProt Q9JHL1)", "experiment": "co-IP; lysates of transiently cotransfected HEK293 cells; 0.5% Triton X-100, 20 mM Tris-HCl pH 7.4, 150 mM NaCl; primary antibody overnight, protein A+G agarose beads 1 h at 4°C"}}, "note": "These are yes or no findings as the source states them, for the method shown. For part of these data: Binding seen in cells or lysates may run through a third protein. Some entries that bind do so weakly or less than the wild type. Tags and fused reporters may be left off the sequences shown."}
{"molecule": "full-length Nherf2 (prey clone from a mouse kidney glomerulus cDNA library) (from UniProt Q9JHL1 1-337)", "values": [{"measurement": "binding", "setting": "[1]", "result": "binds"}]}
{"molecule": "ezrin (transfected HEK293 cells) (from UniProt P26040 1-586)", "values": [{"measurement": "binding", "setting": "[2]", "result": "binds"}]}
{"molecule": "B1", "values": [{"measurement": "binding", "setting": "[3]", "result": "binds"}]}
